The text below walks through data of patent publication US20210180095A1 (SHELL OIL COMPANY, priority 2017, published 2021).

The nature of this series: Effect of pH, temperature and oxygen on HmfF decarboxylation activity (UV-vis).

B1: P. thermopropionicum HmfF: HmfF enzyme (2,5-furandicarboxylic acid decarboxylase) of SEQ ID NO:1 from the thermophilic bacterium Pelotomaculum thermopropionicum (protein, listed as Pelotomaculum thermopropionicum)
chain: MSHSLREWLAFLEGKGKLKRVRKEVDPVFEIAALGKQADGICSLLFERVKGYAVPVVTGLAGDRELFAAAMSVPVEGMLEKLAAAVENPVPCRLVSPDGAPVKECIIRENIDLLKMLPIPTHHAGDAGPYITAAILIARDPDSGVRNVSIHRLQVTGPDRLGILILPRHLWHFFGKAERAGRPLEIALAIGVHPAVLLASQATTRLGVDELEIASALLPQPLELVKCETVDVEVPAGAEIVIEGKILPGVREVEGPFGEYPRYYGPAAPRPVVEVTAVTHRRQPVYHTIIPASREHLLLGGIAREAVLLQTVRQAVPTVKNVHLTPGGSCRYHAVISIEKKHEGEAKNAIFAAFTSSSEVKHVVVVDHEINIFDPEEVEWAVATRCQAGRDVFIVKDAMGNRLDPSSRDGVSDKMGIDATIPLNLPGERFERISIPGLDKIKLADYLE
As to B1, the “temperature at and above which rates decrease rapidly (enzyme inactivated)” value (FDCA decarboxylation) is at least 55 °C. In addition, the “HmfF activity under aerobic conditions” value (aerobic conditions) is recorded as “rapidly decrease”.
